We go through 1 substance from publication PMC11225194.

Sequences of proteins named here, by UniProt entry; tags and fusion partners are left off.
UniProt P68104: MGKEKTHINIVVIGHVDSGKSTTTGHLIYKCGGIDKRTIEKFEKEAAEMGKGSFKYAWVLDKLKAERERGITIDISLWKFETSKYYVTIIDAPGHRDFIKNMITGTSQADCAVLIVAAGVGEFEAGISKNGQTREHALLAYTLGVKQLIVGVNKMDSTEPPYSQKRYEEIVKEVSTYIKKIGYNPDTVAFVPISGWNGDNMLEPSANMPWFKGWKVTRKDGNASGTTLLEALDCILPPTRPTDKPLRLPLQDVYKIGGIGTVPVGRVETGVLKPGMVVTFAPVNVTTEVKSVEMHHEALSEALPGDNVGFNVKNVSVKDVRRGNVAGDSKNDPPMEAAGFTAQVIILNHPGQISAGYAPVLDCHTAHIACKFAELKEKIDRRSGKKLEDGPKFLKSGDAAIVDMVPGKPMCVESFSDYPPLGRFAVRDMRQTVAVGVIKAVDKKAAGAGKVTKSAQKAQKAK

The target in the experiment is T1, UCHL3 overexpressed in HUH7 cells (lentivirus) (UniProt P15374).
T1 sequence: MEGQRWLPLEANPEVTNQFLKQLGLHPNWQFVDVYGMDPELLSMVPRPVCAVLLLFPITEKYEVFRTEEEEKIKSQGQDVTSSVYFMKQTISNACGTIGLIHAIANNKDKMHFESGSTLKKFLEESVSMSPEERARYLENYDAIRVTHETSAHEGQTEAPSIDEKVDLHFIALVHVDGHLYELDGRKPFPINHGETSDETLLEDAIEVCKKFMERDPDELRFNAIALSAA
Briefly: affinity purification with mass spectrometry; immunoprecipitation with UCHL3 antibody from total protein of HUH7 cells overexpressing UCHL3, IgG as negative control; gel strips digested, LC-MS.

Results are given in words; binding and its absence hold for the method and conditions named. In cells and extracts the contact can be indirect. Here binding means that the protein was enriched with, or labelled near, the bait; the list need not be complete.

As for “Eukaryotic translation elongation factor 1 alpha 1 (EEF1A1), endogenous in HCC cells (from UniProt P68104 1-462)”, the binding entry is listed as “binds”.
